Laboratory results: PubChem BioAssay AID504744 (Drosophila RNAi Screening Center, 2011)

Aim: 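Find genes whose loss alters insulin-driven dAkt phosphorylation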 (primary screen)
Cells: Drosophila Kc167 cells
Reagents: long dsRNA against Drosophila genes, 250 ng dsRNA per well of a 384-well plate
Timing: 3 days of knock-down, then overnight serum-free starvation before stimulation
Conditions: bovine insulin at 387 nM for 10 minutes after 12 h without serum
Measurement: 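Per-well phospho-dAkt level from an in-cell fluorescent antibody stain, divided by a DNA-dye signal; log2 residuals turned into z-scores that take cell number into account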
Rule for the call: 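Under insulin, a gene counts as a hit if the average z-score of two replicates lies above 2.5 or below -2.5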
In all, the deposit lists about 23,000 reagents; this is an unselected part of those with a known target gene and a result. In the full data, 98 (0.43%) were called active. 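Only hit calls are given; the phospho-dAkt signals, z-scores and hit direction were not deposited.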 The numbers tell different reagents against one gene apart. Names joined by + are all predicted targets of the reagent.

The first 14 records as a preview:
| gene | reagent no. | Call |
| --- | --- | --- |
| Taf11 | 1 | inactive |
| Cdk7 | 1 | inactive |
| CG11837 | 1 | inactive |
| CG30048 | 1 | inactive |
| Men-b | 1 | inactive |
| Mi-2 | 1 | inactive |
| CG4891 | 1 | inactive |
| Cyp4d8 | 1 | inactive |
| CG11986 | 1 | inactive |
| Nup160 | 1 | inactive |
| Tango6 | 1 | inactive |
| Plap | 1 | inactive |
| Trm7-34 | 1 | inactive |
| Max | 1 | inactive |

Results, from the first entry:
| gene | reagent no. | Call |
| --- | --- | --- |
| Taf11 | 1 | inactive |
| Cdk7 | 1 | inactive |
| CG11837 | 1 | inactive |
| CG30048 | 1 | inactive |
| Men-b | 1 | inactive |
| Mi-2 | 1 | inactive |
| CG4891 | 1 | inactive |
| Cyp4d8 | 1 | inactive |
| CG11986 | 1 | inactive |
| Nup160 | 1 | inactive |
| Tango6 | 1 | inactive |
| Plap | 1 | inactive |
| Trm7-34 | 1 | inactive |
| Max | 1 | inactive |
| Art4 | 1 | inactive |
| Snx21 | 1 | inactive |
| CG13239 | 1 | inactive |
| CG31323 | 1 | inactive |
| CG31140 | 1 | inactive |
| CG31140 | 2 | inactive |
| CG31140 | 3 | inactive |
| CG32189 | 1 | inactive |
| Rpt2 | 1 | inactive |
| Sclp | 1 | inactive |
| ara | 1 | inactive |
| Obp50a | 1 | inactive |
| Cpr97Ea | 1 | inactive |
| CG42506 (retired record) + CG43759 | 1 | inactive |
| CG42506 (retired record) + CG43759 | 2 | inactive |
| Cpr78Cb | 1 | inactive |
| insv | 1 | inactive |
| CG42663 | 1 | inactive |
| CG42663 | 2 | inactive |
| CG2256 | 1 | inactive |
| Ir51b | 1 | inactive |
| ND-B18 | 1 | inactive |
| CG10646 | 1 | inactive |
| Sil1 | 1 | inactive |
| CG17378 | 1 | inactive |
| Myd88 | 1 | inactive |
| Lk | 1 | inactive |
| CG14420 | 1 | inactive |
| Afti | 1 | inactive |
| GIIIspla2 | 1 | inactive |
| CG6005 | 1 | inactive |
| Rab27 | 1 | inactive |
| CG11586 | 1 | inactive |
| l(2)34Fc | 1 | inactive |
| Mst98Ca | 1 | inactive |
| Tbh | 1 | inactive |
| CG4763 | 1 | inactive |
| CG4763 | 2 | inactive |
| CG12483 | 1 | inactive |
| vret | 1 | inactive |
| Acat1 | 1 | inactive |
| CG34183 | 1 | inactive |
| CG1824 | 1 | inactive |
| Rad60 | 1 | inactive |
| Pp2C1 | 1 | inactive |
| ec | 1 | inactive |
| ec | 2 | inactive |
| ec | 3 | inactive |
| Ktch | 1 | inactive |
| CG3515 | 1 | inactive |
| r2d2 | 1 | inactive |
| sqa | 1 | inactive |
| sqa | 2 | inactive |
| Cec2 | 1 | inactive |
| corto | 1 | inactive |
| corto | 2 | inactive |
| CG12065 | 1 | inactive |
| CG12065 | 2 | inactive |
| gammaCOP | 1 | inactive |
| Npc1b | 1 | inactive |
| pico | 1 | inactive |
| CG5087 | 1 | inactive |
| CG43102 | 1 | inactive |
| CG43102 | 2 | inactive |
| CG7840 | 1 | inactive |
| tbrd-1 | 1 | inactive |
| CG8360 | 1 | inactive |
| nclb | 1 | inactive |
| nrv3 | 1 | inactive |
| CG14257 | 1 | inactive |
| Ipo9 | 1 | inactive |
| TotZ | 1 | inactive |
| CG33221 (retired record) | 1 | inactive |
| spz3 | 1 | inactive |
| spz3 | 2 | inactive |
| Obp50b + Obp50c | 1 | inactive |
| CG33268 | 1 | inactive |
| alphaTub84B | 1 | inactive |
| sel | 1 | inactive |
| CG8132 | 1 | inactive |
| CG18508 | 1 | inactive |
| CG15605 | 1 | inactive |
| CG5687 | 1 | inactive |
| CG4286 | 1 | inactive |
| CG30010 | 1 | inactive |
| Mkrn1 | 1 | inactive |
| Smvt | 1 | inactive |
| Invadolysin | 1 | inactive |
| sr | 1 | inactive |
| sr | 2 | inactive |
| CG10822 | 1 | inactive |
| CG4278 | 1 | inactive |
| CG13643 | 1 | inactive |
| CG13643 | 2 | inactive |
| mus301 | 1 | inactive |
| osp | 1 | inactive |
| osp | 2 | inactive |
| CG6481 | 1 | inactive |
| NaPi-III | 1 | inactive |
| NaPi-III | 2 | inactive |
| NaPi-III | 3 | inactive |
| CG32987 | 1 | inactive |
| CG42650 | 1 | inactive |
| Cdk5alpha | 1 | inactive |
| dlg1 | 1 | inactive |
| dlg1 | 2 | inactive |
| dlg1 | 3 | inactive |
| dlg1 | 4 | inactive |
| CG10469 | 1 | inactive |
| CG14088 | 1 | inactive |
| Cul2 | 1 | inactive |
| Dhps | 1 | inactive |
| CycH | 1 | inactive |
| CycH | 2 | inactive |
| CG33483 | 1 | inactive |
| betaNACtes1 | 1 | inactive |
| Not10 | 1 | inactive |
| CG32846 | 1 | inactive |
| Rca1 | 1 | inactive |
| CngB | 1 | inactive |
| CG34034 | 1 | inactive |
| CG7985 | 1 | inactive |
| CG7557 | 1 | inactive |
| Cp18 | 1 | inactive |
| CG13359 | 1 | inactive |
| Vps2 | 1 | inactive |
| Tengl1 | 1 | inactive |
| CG32204 | 1 | inactive |
| l(3)neo43 | 1 | inactive |
| CG17239 | 1 | inactive |
| Spg7 | 1 | inactive |
| Akap200 | 1 | inactive |
| CG42397 | 1 | inactive |
| Vang | 1 | inactive |
| Sur | 1 | inactive |
| CG2104 | 1 | inactive |
| SREBP | 1 | inactive |
| Srp54k | 1 | inactive |
| CG14879 | 1 | inactive |
| CG17211 | 1 | inactive |
| armi | 1 | inactive |
| CG10887 | 1 | inactive |
| Cyp6d4 | 1 | inactive |
